Measured data: PubChem BioAssay AID743454 (Peter MacCallum Cancer Centre, 2014)

Assay: 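Genes whose loss kills vorinostat-resistant colon cancer cells under vorinostat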 (primary screen)
Cell system: human HCT116-VR colon cancer cells, selected for vorinostat resistance
Knock-down reagent: siRNA pool against human genes, 40 nM siRNA pool
Timing: vorinostat for 24 h, read-out about 72 h after transfection
Treatment: vorinostat at 2.5 µM final
Measurement: 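Two measures, CellTiter-Fluor viability and luminescent caspase 3/7 activity, each as fold change against same-plate mock wells, mean of duplicates, then screen-wide robust z-score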
Reading the numbers: viability robust z-score: higher = more viable cells than screen typical; caspase robust z-score: higher = more caspase 3/7 activity than screen typical
Hit rule: 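a knock-down is a hit when classed RV1 or RV2 for lowered viability, or CA1 or CA2 for caspase activation; those lethal without drug were dropped; hits were retested singly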
Here is a random part of about 18,000 reagents. In the full data, 450 (2.5%) got an active call. 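Single biological run; no consistent viability z cut-off exists, so the class columns, not z-scores, define the calls.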 Unmarked entries are inactive.

gene symbol,viability hit class,caspase hit class,viability robust z-score,caspase robust z-score
B3GNT2,no change,no change,1.68,-0.52
AFG3L2,no change,no change,-1.64,0.7
MRPS34,no change,no change,1.54,0
AVP,RV2 (reduced viability) (active),no change,-2.94,-1.45
CARS2,no change,no change,-0.52,-0.59
FGF2,no change,no change,-0.32,1.12
RFC3,no change,no change,0.52,0.5
CLDN4,no change,no change,0.14,0.26

An excerpt taken from the entries so far, for reference:
gene symbol,viability hit class,caspase hit class,viability robust z-score,caspase robust z-score
AVP,RV2 (reduced viability) (active),no change,-2.94,-1.45
CARS2,no change,no change,-0.52,-0.59
FGF2,no change,no change,-0.32,1.12

The listing continues.
gene symbol,viability hit class,caspase hit class,viability robust z-score,caspase robust z-score
IFI27L2,no change,no change,-1.18,0.14
NEK8,no change,no change,-0.86,-0.57
CES5A,no change,no change,-0.74,2.84
ORAI1,no change,no change,0.09,0.28
CD226,no change,no change,0.47,2.01
SEC14L3,no change,no change,0.84,-0.1
PRRG3,no change,no change,0.15,-0.31
WHRN,no change,no change,2.06,-0.48
OPALIN,no change,no change,1.35,-0.48
ALKBH5,no change (active),CA2 (caspase activation),-2.48,6.82
KCNK15,no change,no change,-0.66,4.36
IQCH,no change,no change,0.6,-0.64
SFRP2,no change,no change,-1.16,0.53
OR7C1,no change,no change,0.1,-0.12
SPATA4,no change,no change,1.36,-0.21
